Measurements: publication PMC9372576
Results are given in words; binding and its absence hold for the method and conditions named. In cells and extracts the contact can be indirect. Binding calls can cover weak binding; strength is not graded here.

By UniProt entry, the sequences of proteins in these tests, tags left out. Where a name states a change or a piece, a line headed by the entry shows the natural chain unless it says otherwise.
UniProt Q9HI16: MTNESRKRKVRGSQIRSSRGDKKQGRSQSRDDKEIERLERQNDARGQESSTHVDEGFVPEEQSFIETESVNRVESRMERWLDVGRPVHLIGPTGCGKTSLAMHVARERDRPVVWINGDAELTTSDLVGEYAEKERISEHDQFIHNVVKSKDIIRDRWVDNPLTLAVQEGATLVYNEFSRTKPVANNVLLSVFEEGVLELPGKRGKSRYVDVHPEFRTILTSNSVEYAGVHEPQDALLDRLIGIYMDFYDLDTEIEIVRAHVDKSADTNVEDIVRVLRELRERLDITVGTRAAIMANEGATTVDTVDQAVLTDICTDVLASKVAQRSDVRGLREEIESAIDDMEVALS

Assays:
Assay in all cases: pull-down; CBD-tagged bait and one untagged prey co-produced in Hfx. volcanii CBDX/Y transformants; lysate in 2.5 M KCl buffer pH 8.0 bound to cellulose (Avicel), six washes, elution with ethylene glycol, Western analysis with Gvp antisera
[1] = molecular target: T1, CBDO (Halobacterium salinarum) (UniProt O51968)
T1 sequence: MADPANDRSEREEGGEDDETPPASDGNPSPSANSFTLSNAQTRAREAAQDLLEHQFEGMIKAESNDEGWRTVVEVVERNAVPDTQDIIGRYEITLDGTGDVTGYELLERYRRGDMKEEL

[2] = molecular target: T2, CBDA (Halobacterium salinarum) (UniProt P08958)
T2 sequence: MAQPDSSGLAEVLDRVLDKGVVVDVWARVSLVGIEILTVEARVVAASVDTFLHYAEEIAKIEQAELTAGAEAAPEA

[3] = molecular target: T3, CBDC (Halobacterium salinarum) (UniProt P24574)
T3 sequence: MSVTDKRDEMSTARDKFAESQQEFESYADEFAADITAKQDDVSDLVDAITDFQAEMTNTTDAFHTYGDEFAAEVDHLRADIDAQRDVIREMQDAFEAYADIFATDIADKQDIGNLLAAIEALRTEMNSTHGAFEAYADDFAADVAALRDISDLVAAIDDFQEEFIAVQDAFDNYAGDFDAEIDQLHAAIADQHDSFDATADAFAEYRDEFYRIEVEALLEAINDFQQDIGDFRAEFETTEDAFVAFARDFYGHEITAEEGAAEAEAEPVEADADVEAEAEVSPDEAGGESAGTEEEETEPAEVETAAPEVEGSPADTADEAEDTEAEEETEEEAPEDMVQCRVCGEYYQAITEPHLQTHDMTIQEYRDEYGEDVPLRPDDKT

Measured: binding

GvpN (from UniProt Q9HI16)
binds: all assays above
